Test results published in the supplement of paper PMC11150407.
Structures can show the parent of a compound that is named as a salt. The whole screen tested about 2,100 compounds, of which about 180 (8.6%) showed an effect of 50% or more. Some of the results follow.

Test system: MOLM1 and UCSD/AML1 (averaged)
Assay: cell viability relative to DMSO control (POC); higher = less growth inhibition
Details: 1 µM; 72 h
Description: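 Primary viability screen in the 3q26 EVI1-high AML cell lines MOLM1 and UCSD/AML1 (1.5e3 cells/well, 384-well), compounds at 1 uM for 72 h. ATP CellTiter-Glo read-out given as percent of viable cells over DMSO control (POC), averaged over duplicates. DMSO was the negative control and 5 uM etoposide the positive control. This mapping covers the MicroSource Spectrum and Selleck anticancer libraries (drug names).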

SMILES	cell viability [%]
N[C@@H](Cc1cc(I)c(Oc2cc(I)c(O)c(I)c2)c(I)c1)C(=O)O	88.4
Cc1cc(=O)oc2cc(O)c(O)cc12	98.5
Nc1cccc2c1C(=O)N(C1CCC(=O)NC1=O)C2=O (centres undefined) [Pomalidomide]	104
O=C(O)CCCCCCCCCCCC[C@@H]1C=CCC1	93.9
CN(C)CCN(Cc1ccccc1)c1ccccn1	90
C=CC1=C(C)c2cc3[nH]c(cc4nc(cc5[nH]c(cc1n2)c(C)c5CCC(=O)O)C(CCC(=O)O)=C4C)c(C)c3C=C	106
Nc1ccn([C@@H]2O[C@H](CO)[C@@H](O)C2(F)F)c(=O)n1 [Gemcitabine HCl (Gemzar)]	10.8
Nc1ccn([C@@H]2O[C@H](CO)[C@@H](O)C2(F)F)c(=O)n1 [Gemcitabine (Gemzar)]	8.79
CC(=O)O[C@@]12CO[C@@H]1C[C@H](O)[C@@]1(C)C(=O)[C@H](O)C3=C(C)[C@@H](OC(=O)[C@H](O)[C@@H](NC(=O)OC(C)(C)C)c4ccccc4)C[C@@](O)([C@@H](OC(=O)c4ccccc4)[C@H]21)C3(C)C [Docetaxel (Taxotere)]	14.7
Clc1ccc(CSC(Cn2ccnc2)c2ccc(Cl)cc2Cl)cc1 (centres undefined)	104
C[n+]1cc2c3c(ccc2c2ccc4cc5c(cc4c21)OCO5)OCO3	80
CCN(CC)C(=O)c1cccc(C)c1	114
CCCN(CCC)S(=O)(=O)c1ccc(C(=O)O)cc1	97.4
COc1ccc(-c2coc3c(O)c(OC)ccc3c2=O)cc1	94.6
CN(C)CCOC(c1ccccc1)c1ccccc1	109
CC(=O)[C@H]1CC[C@H]2[C@@H]3CCC4=CC(=O)CC[C@]4(C)[C@H]3CC[C@]12C	97.5
CN(C)CC/C=C1/c2ccccc2Sc2ccc(Cl)cc21	95.6
CC(=O)O[C@H]1C[C@@H](OC(C)=O)C(C)(C)[C@@H]2C[C@@H](OC(C)=O)[C@]3(C)[C@H](CC[C@@]4(C)[C@H](c5ccoc5)OC(=O)[C@H]5O[C@@]534)[C@@]12C	83.3
CC(=O)Oc1ccccc1C(=O)O	101
N=C(N)NS(=O)(=O)c1ccc(N)cc1	101
CC1=C(/C=C/C(C)=C/C=C/C(C)=C/C(=O)O)C(C)(C)CCC1 [All-trans Retinoic Acid (Tretinoin)]	75.1
CC1=C(/C=C/C(C)=C/C=C/C(C)=C/C(=O)O)C(C)(C)CCC1	94.7
CC(=O)O[C@@H]1CC2C(C)(C)[C@H](O)C=C[C@]2(C)C2CC[C@@]3(C)[C@H](c4ccoc4)OC(=O)C4OC43[C@@]21C (some centres undefined)	98.8

Some of the entries so far, as comma-separated lines.
SMILES,cell viability [%]
N[C@@H](Cc1cc(I)c(Oc2cc(I)c(O)c(I)c2)c(I)c1)C(=O)O,88.4
Cc1cc(=O)oc2cc(O)c(O)cc12,98.5
Nc1cccc2c1C(=O)N(C1CCC(=O)NC1=O)C2=O (centres undefined) [Pomalidomide],104
CN(C)CCN(Cc1ccccc1)c1ccccn1,90
C=CC1=C(C)c2cc3[nH]c(cc4nc(cc5[nH]c(cc1n2)c(C)c5CCC(=O)O)C(CCC(=O)O)=C4C)c(C)c3C=C,106
Nc1ccn([C@@H]2O[C@H](CO)[C@@H](O)C2(F)F)c(=O)n1 [Gemcitabine HCl (Gemzar)],10.8
Nc1ccn([C@@H]2O[C@H](CO)[C@@H](O)C2(F)F)c(=O)n1 [Gemcitabine (Gemzar)],8.79
CC(=O)O[C@@]12CO[C@@H]1C[C@H](O)[C@@]1(C)C(=O)[C@H](O)C3=C(C)[C@@H](OC(=O)[C@H](O)[C@@H](NC(=O)OC(C)(C)C)c4ccccc4)C[C@@](O)([C@@H](OC(=O)c4ccccc4)[C@H]21)C3(C)C [Docetaxel (Taxotere)],14.7
Clc1ccc(CSC(Cn2ccnc2)c2ccc(Cl)cc2Cl)cc1 (centres undefined),104
C[n+]1cc2c3c(ccc2c2ccc4cc5c(cc4c21)OCO5)OCO3,80
CCN(CC)C(=O)c1cccc(C)c1,114
CCCN(CCC)S(=O)(=O)c1ccc(C(=O)O)cc1,97.4
CN(C)CCOC(c1ccccc1)c1ccccc1,109
CC(=O)[C@H]1CC[C@H]2[C@@H]3CCC4=CC(=O)CC[C@]4(C)[C@H]3CC[C@]12C,97.5
CN(C)CC/C=C1/c2ccccc2Sc2ccc(Cl)cc21,95.6
CC(=O)O[C@H]1C[C@@H](OC(C)=O)C(C)(C)[C@@H]2C[C@@H](OC(C)=O)[C@]3(C)[C@H](CC[C@@]4(C)[C@H](c5ccoc5)OC(=O)[C@H]5O[C@@]534)[C@@]12C,83.3
CC1=C(/C=C/C(C)=C/C=C/C(C)=C/C(=O)O)C(C)(C)CCC1 [All-trans Retinoic Acid (Tretinoin)],75.1
CC1=C(/C=C/C(C)=C/C=C/C(C)=C/C(=O)O)C(C)(C)CCC1,94.7
CC(=O)O[C@@H]1CC2C(C)(C)[C@H](O)C=C[C@]2(C)C2CC[C@@]3(C)[C@H](c4ccoc4)OC(=O)C4OC43[C@@]21C (some centres undefined),98.8

The list goes on:

SMILES	cell viability [%]
COc1cc(C(=O)NCCCCCC(=O)O)cc(OC)c1OC	102
CC1=C(C(=O)O)N2C(=O)[C@@H](NC(=O)[C@H](N)C3=CCC=CC3)[C@H]2SC1	105
N[C@@H](CCC(=O)N[C@@H](CS)C(=O)NCC(=O)O)C(=O)O	95.1
COc1cc2c3cc1Oc1cc(ccc1O)C[C@@H]1c4c(cc(OC)c(O)c4Oc4ccc(cc4)C[C@@H]3N(C)CC2)CC[N+]1(C)C	100
Cc1ncc(CO)c(CO)c1O	99.4
COc1ccc2cc([C@H](C)CO)ccc2c1	103
C#C[C@]1(OC(C)=O)CC[C@H]2[C@@H]3CCC4=CC(=NO)CC[C@@H]4[C@H]3CC[C@@]21CC (mixture of isomers)	91.3
Clc1ccc(CO/N=C(\Cn2ccnc2)c2ccc(Cl)cc2Cl)c(Cl)c1	100
CC(=O)O[C@]1(C(C)=O)CC[C@H]2[C@@H]3C=C(Cl)C4=CC(=O)[C@@H]5C[C@@H]5[C@]4(C)[C@H]3CC[C@@]21C	102
CC(C)c1cc(-c2n[nH]c(=O)n2-c2ccc3c(ccn3C)c2)c(O)cc1O [Ganetespib (STA-9090)]	2.49
N[C@@H]1CONC1=O	95.6
O=C(O)COCCN1CCN(C(c2ccccc2)c2ccc(Cl)cc2)CC1 (centres undefined)	103
CC(C)n1nc(-c2ccc3oc(N)nc3c2)c2c(N)ncnc21	21.6
CCCCCCCCCCCCCCCC(=O)OC[C@@H](NC(=O)C(Cl)Cl)[C@H](O)c1ccc([N+](=O)[O-])cc1	96.2
CCCCc1nc2cc(/C=C/C(=O)NO)ccc2n1CCN(CC)CC [SB939 (Pracinostat)]	1.57
O=C(O)/C=C/c1ccc(O)c(O)c1	90.5
COc1cc2nc(N(C)CCCNC(=O)C3CCCO3)nc(N)c2cc1OC (centres undefined)	86.8
CC1(C)S[C@@H]2[C@H](NC(=O)[C@H](NC(=O)N3CCNC3=O)c3ccccc3)C(=O)N2[C@H]1C(=O)O	101
COc1c(-c2coc3cc4c(cc3c2=O)CC(OC(C)=O)C(C)(C)O4)ccc2c1C=CC(C)(C)O2 (centres undefined)	88.7
CCCCCCCCCc1ccc(OCCOCCOCCOCCOCCOCCOCCOCCOCCO)cc1	37.9
NC(=O)c1cc[n+](CC2=C(C(=O)O)N3C(=O)[C@@H](NC(=O)[C@@H](c4ccccc4)S(=O)(=O)[O-])[C@H]3SC2)cc1	116
COC(=O)Nc1nc2cc(C(=O)c3ccccc3)ccc2[nH]1	16.8
CCCCCCc1ccc(O)cc1O.Nc1c2ccccc2nc2ccccc12	46.4

SMILES	cell viability [%]
Cc1onc(-c2c(Cl)cccc2Cl)c1C(=O)N[C@@H]1C(=O)N2[C@@H]1SC(C)(C)[C@@H]2C(=O)O	100
COc1cc(OC)c(C(C)=O)c(O)c1C	111
Cc1cc(O)c(C=O)c2c1C(=O)Oc1c(C)c(O)c3c(c1O2)C(O)OC3=O (centres undefined)	97.7
C[N+](C)(C)CCCCCC[N+](C)(C)C	114
CN(C)/N=N/c1[nH]cnc1C(N)=O [Dacarbazine (DTIC-Dome)]	86.2
CN(C)/N=N/c1[nH]cnc1C(N)=O	103
COc1ccc(C(Cl)=C(c2ccc(OC)cc2)c2ccc(OC)cc2)cc1	99.1
O=C(O)c1cccc(O)c1O	107
CC(CCc1ccccc1)NCC(O)c1ccc(O)c(C(N)=O)c1 (centres undefined)	110
CCOC(=O)[C@H](CCc1ccccc1)N[C@@H](C)C(=O)N1Cc2ccccc2C[C@H]1C(=O)O	91.6
CN(C)CCCN1c2ccccc2Sc2ccccc21	97.3
Cc1cc(C(C)(C)C)c(O)c(C)c1CC1=NCCN1	100
COC(=O)[C@H](OC(C)=O)[C@H]1C(C)(C)[C@H](OC(C)=O)[C@@H]2CC3=C4CC(=O)O[C@@H](c5ccoc5)[C@]4(C)CC[C@@H]3[C@@]1(C)C2=O	94.8
C=CC(C1=CC(=O)C=CC1=O)c1ccccc1 (centres undefined)	103
O=c1cc(N2CCOCC2)oc2c(-c3cccc4c3sc3ccccc34)cccc12	56.1
CC(C)(C(=O)O)c1ccc(C(O)CCCN2CCC(C(O)(c3ccccc3)c3ccccc3)CC2)cc1 (centres undefined)	88.4
C[N+]1(C)[C@@H]2CC[C@H]1C[C@@H](OC(=O)C(O)c1ccccc1)C2 (some centres undefined)	101
COc1ccc2c(c1)OC1(O)COc3cc(OC)c(OC)cc3C1=C2 (centres undefined)	102
COc1ccc2c(=O)c(-c3cc4c(cc3OC)OCO4)coc2c1	99.7
COc1ccc2c(c1)OC/C(=C\c1ccc(OC)c(O)c1)C2=O	18.3
C[C@]1(OC(=O)/C=C/c2ccccc2)C[C@@H](O)[C@]2(O)C=CO[C@@H](O[C@@H]3O[C@H](CO)[C@@H](O)[C@H](O)[C@H]3O)[C@@H]21	95
COC(=O)[C@H]1[C@H]2C[C@H]3c4[nH]c5ccccc5c4CCN3C[C@@H]2CC[C@@H]1O	98.8
CNCCCC1c2ccccc2C=Cc2ccccc21	84.4

SMILES	cell viability [%]
CC1(C)C(=O)C=C[C@]2(C)[C@H]3CC[C@@]4(C)[C@H](c5ccoc5)OC(=O)[C@H]5O[C@]54[C@]3(C)C(=O)C[C@@H]12	84.7
C[C@]12CCC(=O)C=C1CC[C@@H]1[C@@H]2[C@@H](O)C[C@@]2(C)[C@H]1CC[C@]2(O)C(=O)CO	81.8
C[C@]12CCC(=O)C=C1CC[C@@H]1[C@@H]2[C@@H](O)C[C@@]2(C)[C@H]1CC[C@]2(O)C(=O)CO [Hydrocortisone (Cortisol)]	81.3
Oc1ncnc2[nH]ncc12	101
CO/N=C(\C(=O)N[C@@H]1C(=O)N2C(C(=O)OCOC(=O)C(C)(C)C)=C(/C=C\c3scnc3C)CS[C@H]12)c1csc(N)n1	96.7
CCC(=O)N1CCN(c2ccc(-n3c(=O)ccc4cnc5ccc(-c6cnc7ccccc7c6)cc5c43)cc2C(F)(F)F)CC1 [Torin 1]	20.8
CN(N=O)C(=O)N[C@H]1C(O)O[C@H](CO)[C@@H](O)[C@@H]1O (mixture of isomers)	102
CCCc1cc(=O)[nH]c(=S)[nH]1	95.7
COc1ccc(CCN(C)CCCC(C#N)(c2ccc(OC)c(OC)c2)C(C)C)cc1OC (centres undefined)	95.4
CC1=C(CCC(=O)O)c2cc3[nH]c(cc4nc(cc5[nH]c(cc1n2)c(C)c5C(C)O)C(C)=C4C(C)O)c(C)c3CCC(=O)O (centres undefined)	107
Fc1ccc(C(c2ccc(F)cc2)N2CCN(C/C=C/c3ccccc3)CC2)cc1	103
CN1CCc2c(c3ccccc3n2Cc2ccccc2)C1	96.6
O=c1cc(-c2cccc3c2Sc2ccccc2S3)oc(N2CCOCC2)c1	69.4
N#Cc1c(O)c2c(-c3ccc(-c4ccccc4O)cc3)csc2[nH]c1=O	97.3
CCCCC(=O)O[C@H]1CC[C@H]2[C@@H]3CCc4cc(O)ccc4[C@H]3CC[C@]12C	103
OCCOCCN1CCN(C2=Nc3ccccc3Sc3ccccc32)CC1	85
Cc1cc(O)c(C)c(O)c1C(=O)O	97.3
CC1(C)S[C@@H]2[C@H](NC(=O)[C@H](N)c3ccc(O)cc3)C(=O)N2[C@H]1C(=O)O	99.4
COc1cccc2c1C(=O)c1c(O)c3c(c(O)c1C2=O)C[C@@](O)(C(=O)CO)C[C@@H]3O[C@H]1C[C@H](N)[C@H](O)[C@H](C)O1 [Doxorubicin (Adriamycin)]	1.61
COc1cccc2c1C(=O)c1c(O)c3c(c(O)c1C2=O)C[C@@](O)(C(=O)CO)C[C@@H]3O[C@H]1C[C@H](N)[C@H](O)[C@H](C)O1	1.67
